Test results: article PMC6957492, “Assembly and substrate recognition of curli biogenesis system” (Nature Communications, 2020)
These are yes or no findings as the source states them, for the method shown. Binding seen in cells or lysates may run through a third protein. A result given as binding can be weak or reduced; the word gives no strength.

Chains of the proteins cited; added tags and fusions are not shown. Lines headed by an entry give the natural chain unless they say otherwise; changes in a name come on top.
UniProt P28307: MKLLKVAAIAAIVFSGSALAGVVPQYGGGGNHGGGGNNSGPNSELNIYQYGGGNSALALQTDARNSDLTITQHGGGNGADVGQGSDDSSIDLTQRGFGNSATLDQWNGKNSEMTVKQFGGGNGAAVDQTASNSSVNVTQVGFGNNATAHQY

Molecular target: CsgA_(R1-5) (E. coli) (UniProt P28307)
Assay: pull-down; pulldown assay of CsgE and CsgA_(R1-5) (Supplementary Fig. 11a); format not told

B1: CsgE (expressed alone) (protein, UniProt P0AE95 23-129)
chain: VEVEVPGLLTDHTVSSIGHDFYRAFSDKWESDYTGNLTINERPSARWGSWITITVNQDVIFQTFLFPLKRDFEKTVVFALIQTEEALNRRQINQALLSTGDLAHDEF
- binding: binds
